Measured data: PubChem BioAssay AID686937 (Drosophila RNAi Screening Center, 2013)
In all, the deposit lists about 23,000 reagents; below is a random part of those with a known target gene and a result. 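Reduced-secretion tags in replicate 1 do not always agree with the z-scores; no criterion for assigning the tags was given.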 The numbers tell different reagents against one gene apart. A plus sign joins genes that one reagent is predicted to hit. Not all columns of the deposit are shown. Not stated in the record: the amount of reagent.

- Purpose: 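Genes whose loss weakens secretory pathway function in fly cells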 (primary screen)
- Cells: Drosophila S2 cells expressing secreted horseradish peroxidase
- Reagent: long dsRNA against Drosophila genes
- Time to read-out: about 5.5 days (5 days dsRNA, then 12 h reporter induction)
- Conditions: reporter expression induced after 5 days of dsRNA, read 12 h later; inducer not stated
- Read-out: 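Chemiluminescent measurement of peroxidase in the medium 12 h after reporter induction, following 5 days of dsRNA, given as a z-score per plate; higher means more secretion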
- Reading the numbers: z-score: higher = more reporter secreted into medium

CG2611 — z-score, replicate 1: 0.34
CG32486 #1 — z-score, replicate 1: 0.39
CG32486 #2 — z-score, replicate 1: 0.21
CG16879 (retired record) #1 — z-score, replicate 1: -1.31
CG16879 (retired record) #2 — z-score, replicate 1: -0.11
grn #1 — z-score, replicate 1: -3.56
grn #2 — z-score, replicate 1: 0.33
CG3868 — z-score, replicate 1: 0.44
nahoda #1 — z-score, replicate 1: 0.16
nahoda #2 — z-score, replicate 1: 0.41
bsk — z-score, replicate 1: 0.51
hbt + CG43779 — z-score, replicate 1: 1.04
Ance — z-score, replicate 1: 0.39
Obp19c — z-score, replicate 1: 0.35
CDase — z-score, replicate 1: 0.09
fra — z-score, replicate 1: 0.15
ZnT35C — z-score, replicate 1: 0.26
btv #1 — z-score, replicate 1: 0.01
btv #2 — z-score, replicate 1: -0.04
Txl — z-score, replicate 1: 0.24
CG33159 — z-score, replicate 1: 0.73
CG13171 — z-score, replicate 1: 0.42
cbt — z-score, replicate 1: 0.11
Max — z-score, replicate 1: 0.08
CG10340 — z-score, replicate 1: 0.1
CG5180 — z-score, replicate 1: 0.14
MKP-4 — z-score, replicate 1: 0.45
CG18265 — z-score, replicate 1: -0.27
CG14113 — z-score, replicate 1: 0.12
Ids — z-score, replicate 1: 0.28
CG2150 — z-score, replicate 1: 0.39
Ugt35E1 — z-score, replicate 1: 0.45
Rab21 — z-score, replicate 1: -0.46

5 entries already listed, ordered by “z-score, replicate 1”, low to high:
btv #2 — z-score, replicate 1: -0.04
btv #1 — z-score, replicate 1: 0.01
fra — z-score, replicate 1: 0.15
Txl — z-score, replicate 1: 0.24
ZnT35C — z-score, replicate 1: 0.26

Additional records:
Ldaf1 — z-score, replicate 1: 0.52
Cpr47Eb — z-score, replicate 1: 0.29
Obp44a — z-score, replicate 1: 0.18
Pdi — z-score, replicate 1: 0.36
CG5116 — z-score, replicate 1: -0.69
Dh31 — z-score, replicate 1: 0.36
CG1971 — z-score, replicate 1: -0.09
Lamtor1 — z-score, replicate 1: -0.31
CG10339 — z-score, replicate 1: 0.13
CG15025 — z-score, replicate 1: 0.31
CG15711 — z-score, replicate 1: 0.07
CG14050 — z-score, replicate 1: 0.18
CG7457 — z-score, replicate 1: 0.37
dap — z-score, replicate 1: 0.23
Cndp2 — z-score, replicate 1: 0.03
Nep5 — z-score, replicate 1: 0.3
CG17819 — z-score, replicate 1: 0.02
Pex2 — z-score, replicate 1: 0.36
